# The other results are listed elsewhere or left out. Most values lie at the level of the controls, where differences are scatter.
# By UniProt entry, the sequences of proteins in these tests, tags left out. Where a name states a change or a piece, a line headed by the entry shows the natural chain unless it says otherwise.
# UniProt Q80UG5: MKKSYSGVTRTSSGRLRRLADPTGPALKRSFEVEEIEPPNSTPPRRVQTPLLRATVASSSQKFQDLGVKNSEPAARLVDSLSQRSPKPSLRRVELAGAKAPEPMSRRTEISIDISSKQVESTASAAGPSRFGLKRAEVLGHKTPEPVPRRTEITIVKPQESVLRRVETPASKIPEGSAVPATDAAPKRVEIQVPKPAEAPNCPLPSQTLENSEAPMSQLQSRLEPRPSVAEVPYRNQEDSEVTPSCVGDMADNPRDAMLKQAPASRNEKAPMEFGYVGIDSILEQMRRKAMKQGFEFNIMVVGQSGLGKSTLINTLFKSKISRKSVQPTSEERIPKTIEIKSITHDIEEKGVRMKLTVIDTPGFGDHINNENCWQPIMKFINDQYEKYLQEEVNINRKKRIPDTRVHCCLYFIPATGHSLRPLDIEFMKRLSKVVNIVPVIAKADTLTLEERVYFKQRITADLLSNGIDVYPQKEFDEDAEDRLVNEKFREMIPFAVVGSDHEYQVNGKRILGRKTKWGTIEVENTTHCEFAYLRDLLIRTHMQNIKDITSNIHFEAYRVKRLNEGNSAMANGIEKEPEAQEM
# UniProt Q78RX3: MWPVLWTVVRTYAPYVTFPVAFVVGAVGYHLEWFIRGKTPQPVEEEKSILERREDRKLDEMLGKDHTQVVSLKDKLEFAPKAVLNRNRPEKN
# UniProt Q8BFS6, whole entry: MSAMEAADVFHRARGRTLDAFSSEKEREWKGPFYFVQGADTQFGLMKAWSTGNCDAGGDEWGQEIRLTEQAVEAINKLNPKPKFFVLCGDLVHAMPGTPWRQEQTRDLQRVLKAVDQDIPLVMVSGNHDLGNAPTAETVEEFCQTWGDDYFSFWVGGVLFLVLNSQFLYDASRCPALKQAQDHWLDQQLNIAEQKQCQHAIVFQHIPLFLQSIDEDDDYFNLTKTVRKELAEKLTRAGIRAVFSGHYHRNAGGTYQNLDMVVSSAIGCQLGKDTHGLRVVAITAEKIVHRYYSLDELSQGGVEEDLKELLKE
# UniProt Q7TNS2: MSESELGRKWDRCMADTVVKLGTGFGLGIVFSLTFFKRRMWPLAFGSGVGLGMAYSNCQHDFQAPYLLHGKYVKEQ
# UniProt Q80VJ3: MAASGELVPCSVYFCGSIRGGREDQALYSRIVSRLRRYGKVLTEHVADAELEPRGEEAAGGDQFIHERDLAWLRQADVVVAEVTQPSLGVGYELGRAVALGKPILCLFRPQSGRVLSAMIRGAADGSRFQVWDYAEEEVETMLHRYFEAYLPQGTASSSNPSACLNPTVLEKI
# UniProt Q76LS9: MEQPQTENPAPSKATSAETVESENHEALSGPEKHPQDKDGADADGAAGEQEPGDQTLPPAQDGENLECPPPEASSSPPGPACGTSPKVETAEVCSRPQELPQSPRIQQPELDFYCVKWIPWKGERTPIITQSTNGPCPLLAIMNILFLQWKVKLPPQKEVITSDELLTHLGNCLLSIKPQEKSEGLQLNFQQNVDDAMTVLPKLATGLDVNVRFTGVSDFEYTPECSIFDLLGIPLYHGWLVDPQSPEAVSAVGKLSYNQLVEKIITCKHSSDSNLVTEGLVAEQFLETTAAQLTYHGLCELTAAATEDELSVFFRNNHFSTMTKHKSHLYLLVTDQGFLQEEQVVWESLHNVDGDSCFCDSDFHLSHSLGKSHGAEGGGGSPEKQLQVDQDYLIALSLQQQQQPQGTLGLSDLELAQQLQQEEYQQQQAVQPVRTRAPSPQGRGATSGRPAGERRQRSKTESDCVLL
# UniProt Q78JE5: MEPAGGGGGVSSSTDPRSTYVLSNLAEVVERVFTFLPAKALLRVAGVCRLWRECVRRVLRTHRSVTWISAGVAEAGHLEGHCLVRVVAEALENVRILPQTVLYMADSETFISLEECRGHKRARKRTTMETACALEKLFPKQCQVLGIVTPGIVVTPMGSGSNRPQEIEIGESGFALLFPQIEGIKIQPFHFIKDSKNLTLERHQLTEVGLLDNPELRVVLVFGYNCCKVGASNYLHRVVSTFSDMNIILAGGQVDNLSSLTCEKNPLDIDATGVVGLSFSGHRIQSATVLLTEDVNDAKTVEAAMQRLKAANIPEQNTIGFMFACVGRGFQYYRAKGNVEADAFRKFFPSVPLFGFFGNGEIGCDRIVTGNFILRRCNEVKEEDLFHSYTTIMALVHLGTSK
# UniProt Q78IQ7: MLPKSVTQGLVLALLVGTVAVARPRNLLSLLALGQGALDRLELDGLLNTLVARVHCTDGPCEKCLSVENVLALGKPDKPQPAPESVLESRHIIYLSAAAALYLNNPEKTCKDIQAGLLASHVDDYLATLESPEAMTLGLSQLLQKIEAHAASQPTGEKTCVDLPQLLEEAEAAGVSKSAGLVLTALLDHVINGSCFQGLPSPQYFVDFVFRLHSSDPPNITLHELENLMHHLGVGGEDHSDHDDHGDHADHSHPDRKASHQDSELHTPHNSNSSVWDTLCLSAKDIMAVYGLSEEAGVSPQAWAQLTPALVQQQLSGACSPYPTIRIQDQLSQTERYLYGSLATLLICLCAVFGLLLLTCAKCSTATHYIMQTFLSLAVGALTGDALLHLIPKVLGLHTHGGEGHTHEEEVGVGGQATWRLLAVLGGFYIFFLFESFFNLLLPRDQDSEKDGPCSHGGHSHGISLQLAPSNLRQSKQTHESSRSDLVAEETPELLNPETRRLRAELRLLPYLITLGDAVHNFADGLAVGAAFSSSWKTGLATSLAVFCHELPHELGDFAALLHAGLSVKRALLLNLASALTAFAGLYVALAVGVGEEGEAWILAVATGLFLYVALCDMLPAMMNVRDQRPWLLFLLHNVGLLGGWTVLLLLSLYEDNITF
# UniProt Q7TPR4, whole entry: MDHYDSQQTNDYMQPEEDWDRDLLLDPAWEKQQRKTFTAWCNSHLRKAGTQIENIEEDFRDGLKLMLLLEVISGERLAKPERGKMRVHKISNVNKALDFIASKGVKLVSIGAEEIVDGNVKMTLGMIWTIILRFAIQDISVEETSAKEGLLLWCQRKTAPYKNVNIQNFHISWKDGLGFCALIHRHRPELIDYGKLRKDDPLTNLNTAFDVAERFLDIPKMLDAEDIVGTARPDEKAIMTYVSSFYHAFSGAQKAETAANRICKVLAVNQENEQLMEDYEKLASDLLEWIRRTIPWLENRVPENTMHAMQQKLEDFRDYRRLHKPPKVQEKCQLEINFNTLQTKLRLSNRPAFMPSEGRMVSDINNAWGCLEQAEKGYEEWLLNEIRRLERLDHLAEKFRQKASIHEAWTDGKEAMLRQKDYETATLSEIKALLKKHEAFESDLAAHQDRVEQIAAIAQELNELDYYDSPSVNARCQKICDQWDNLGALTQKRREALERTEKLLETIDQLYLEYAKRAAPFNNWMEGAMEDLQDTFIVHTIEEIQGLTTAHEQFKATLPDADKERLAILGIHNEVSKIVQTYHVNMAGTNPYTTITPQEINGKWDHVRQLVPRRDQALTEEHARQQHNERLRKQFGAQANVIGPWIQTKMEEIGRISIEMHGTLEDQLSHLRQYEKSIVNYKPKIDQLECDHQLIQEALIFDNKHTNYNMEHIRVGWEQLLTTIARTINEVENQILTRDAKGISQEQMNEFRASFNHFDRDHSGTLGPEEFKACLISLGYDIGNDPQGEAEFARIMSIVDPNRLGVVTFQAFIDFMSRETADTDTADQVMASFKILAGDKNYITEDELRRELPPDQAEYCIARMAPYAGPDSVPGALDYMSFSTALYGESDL
# UniProt Q6X893: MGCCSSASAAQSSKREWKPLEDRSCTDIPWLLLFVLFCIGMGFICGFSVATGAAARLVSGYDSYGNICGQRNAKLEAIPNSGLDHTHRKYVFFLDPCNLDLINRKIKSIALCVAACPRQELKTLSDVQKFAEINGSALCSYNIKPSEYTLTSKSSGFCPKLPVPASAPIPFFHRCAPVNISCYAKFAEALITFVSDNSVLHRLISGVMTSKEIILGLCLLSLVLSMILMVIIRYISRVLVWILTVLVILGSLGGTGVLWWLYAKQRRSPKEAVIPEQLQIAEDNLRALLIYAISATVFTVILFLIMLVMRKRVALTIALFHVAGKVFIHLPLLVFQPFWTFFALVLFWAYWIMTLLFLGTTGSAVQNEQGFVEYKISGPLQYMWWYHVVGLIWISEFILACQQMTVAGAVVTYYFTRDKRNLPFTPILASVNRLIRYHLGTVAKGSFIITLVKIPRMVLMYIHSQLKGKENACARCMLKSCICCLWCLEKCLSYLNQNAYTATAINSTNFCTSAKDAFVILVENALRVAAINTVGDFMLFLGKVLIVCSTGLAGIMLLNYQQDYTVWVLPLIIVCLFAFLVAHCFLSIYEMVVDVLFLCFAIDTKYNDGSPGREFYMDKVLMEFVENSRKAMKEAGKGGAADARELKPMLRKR
# UniProt Q6ZQI3: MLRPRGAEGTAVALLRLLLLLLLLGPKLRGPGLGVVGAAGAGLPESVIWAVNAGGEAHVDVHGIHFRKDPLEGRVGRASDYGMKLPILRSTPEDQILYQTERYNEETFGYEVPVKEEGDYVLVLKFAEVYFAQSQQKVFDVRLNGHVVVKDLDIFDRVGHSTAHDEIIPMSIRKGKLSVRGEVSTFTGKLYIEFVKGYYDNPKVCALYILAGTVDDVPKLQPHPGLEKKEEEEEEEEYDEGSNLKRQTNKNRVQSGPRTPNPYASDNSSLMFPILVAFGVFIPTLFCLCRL
# UniProt Q7TQ95: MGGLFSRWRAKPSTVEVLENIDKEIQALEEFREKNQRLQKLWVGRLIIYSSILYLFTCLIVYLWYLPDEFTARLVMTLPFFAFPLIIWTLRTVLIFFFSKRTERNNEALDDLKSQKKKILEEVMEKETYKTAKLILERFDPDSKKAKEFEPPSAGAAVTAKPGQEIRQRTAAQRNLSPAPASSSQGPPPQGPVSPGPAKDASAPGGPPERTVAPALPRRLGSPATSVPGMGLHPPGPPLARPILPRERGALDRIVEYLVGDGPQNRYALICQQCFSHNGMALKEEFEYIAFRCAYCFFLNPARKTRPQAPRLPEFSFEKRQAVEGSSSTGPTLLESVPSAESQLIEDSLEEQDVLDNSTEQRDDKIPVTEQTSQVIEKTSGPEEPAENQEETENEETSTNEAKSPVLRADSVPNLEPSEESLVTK
# UniProt Q80WR5: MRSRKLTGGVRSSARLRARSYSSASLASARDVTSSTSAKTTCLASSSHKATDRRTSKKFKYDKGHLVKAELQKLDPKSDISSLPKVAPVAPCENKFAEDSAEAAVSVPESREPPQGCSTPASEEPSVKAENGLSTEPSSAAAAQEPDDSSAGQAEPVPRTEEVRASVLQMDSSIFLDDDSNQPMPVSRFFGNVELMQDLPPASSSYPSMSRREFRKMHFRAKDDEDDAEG
# UniProt Q6PD19: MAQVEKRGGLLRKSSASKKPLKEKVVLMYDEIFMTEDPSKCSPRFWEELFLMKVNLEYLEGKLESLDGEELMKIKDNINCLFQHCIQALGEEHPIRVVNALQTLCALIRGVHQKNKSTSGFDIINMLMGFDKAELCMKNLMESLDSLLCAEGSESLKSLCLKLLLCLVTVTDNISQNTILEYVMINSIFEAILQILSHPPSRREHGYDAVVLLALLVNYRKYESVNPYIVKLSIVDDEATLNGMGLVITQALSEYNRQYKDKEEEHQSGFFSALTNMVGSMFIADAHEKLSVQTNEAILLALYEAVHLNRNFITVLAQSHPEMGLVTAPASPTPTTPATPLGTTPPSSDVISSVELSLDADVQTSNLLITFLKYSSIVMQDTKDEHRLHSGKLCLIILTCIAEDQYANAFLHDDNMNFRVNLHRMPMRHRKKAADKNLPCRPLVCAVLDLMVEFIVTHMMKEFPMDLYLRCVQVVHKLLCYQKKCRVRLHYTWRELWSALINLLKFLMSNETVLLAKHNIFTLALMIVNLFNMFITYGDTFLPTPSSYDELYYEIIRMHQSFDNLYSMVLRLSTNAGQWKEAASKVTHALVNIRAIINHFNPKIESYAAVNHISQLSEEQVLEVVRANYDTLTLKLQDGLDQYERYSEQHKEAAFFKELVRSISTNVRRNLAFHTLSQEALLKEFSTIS
# UniProt Q80SY6: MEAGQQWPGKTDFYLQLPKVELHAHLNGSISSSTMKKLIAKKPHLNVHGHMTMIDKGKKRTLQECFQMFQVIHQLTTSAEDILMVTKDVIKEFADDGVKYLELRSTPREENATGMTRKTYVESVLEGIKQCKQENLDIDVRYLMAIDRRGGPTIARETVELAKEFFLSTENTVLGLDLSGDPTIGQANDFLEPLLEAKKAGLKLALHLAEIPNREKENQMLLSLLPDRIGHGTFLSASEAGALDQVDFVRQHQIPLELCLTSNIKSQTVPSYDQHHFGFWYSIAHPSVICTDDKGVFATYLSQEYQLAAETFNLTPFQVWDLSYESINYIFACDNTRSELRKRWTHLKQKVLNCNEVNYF
# UniProt Q78IK2: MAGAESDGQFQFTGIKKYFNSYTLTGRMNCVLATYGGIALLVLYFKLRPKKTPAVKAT
# UniProt Q6P8I4: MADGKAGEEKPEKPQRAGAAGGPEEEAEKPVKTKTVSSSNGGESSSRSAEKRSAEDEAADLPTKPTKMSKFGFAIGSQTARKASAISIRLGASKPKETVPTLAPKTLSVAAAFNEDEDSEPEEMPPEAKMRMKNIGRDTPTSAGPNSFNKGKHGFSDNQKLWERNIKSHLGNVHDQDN
# Compound: CN[C@@H]1C[C@H]2O[C@@](C)([C@@H]1OC)n1c3ccccc3c3c4c(c5c6ccccc6n2c5c31)C(=O)NC4 [staurosporine]
# Assay: log2 fold change of pooled soluble protein (PISA), ligand vs vehicle (log2 ratio); higher = more thermally stabilized
# Conditions: ligand concentration: 20 uM; assay format: PISA pool 52.9/55.5/58.6 C
row,Target,log2 fold change of pooled soluble protein
1,UniProt Q80UG5,-0.0833
2,UniProt Q78RX3,-0.179
3,UniProt Q8BFS6,0.0462
4,UniProt Q78T54,-0.317
5,UniProt Q7TNS2,-0.23
6,UniProt Q80SU7,0.0122
7,UniProt Q80VJ3,-0.323
8,UniProt Q810B6,0.156
9,UniProt Q6P3A8,-0.0356
10,UniProt Q80U72,-0.0216
11,UniProt Q76LS9,0.0412
12,UniProt Q78JE5,0.0736
13,UniProt Q78IQ7,0.144
14,UniProt Q711T7,0.0207
15,UniProt Q80W21,-0.138
16,UniProt Q7TPR4,-0.00597
17,UniProt Q6P5H2,-0.0569
18,UniProt Q6ZPE2,-0.00115

# 2 consecutive records already listed, quoted:
row,Target,log2 fold change of pooled soluble protein
12,UniProt Q78JE5,0.0736
13,UniProt Q78IQ7,0.144

# Remaining list, next part:

row,Target,log2 fold change of pooled soluble protein
1,UniProt Q7TQI3,0.19
2,UniProt Q6X893,0.0131
3,UniProt Q6ZQI3,0.0411
4,UniProt Q7TQ95,-0.185
5,UniProt Q80WR5,-0.0148
6,UniProt Q8BG07,-0.0887
7,UniProt Q6PD19,0.112
8,UniProt Q6NZM9,-0.14
9,UniProt Q80SY6,-0.141
10,UniProt Q80TH2,-0.138
11,UniProt Q8BFR4,-0.0913
12,UniProt Q7TNC9,-0.106
13,UniProt Q6P9Q6,0.0837
14,UniProt Q78IK2,-0.268
15,UniProt Q7TNV0,-0.0163
16,UniProt Q6P8I4,0.0463
17,UniProt Q7TQH0,-0.00309
